Source: PubChem BioAssay AID588590 (National Center for Advancing Translational Sciences (NCATS), 2011)
Out of some 390,000 compounds screened, about 4,000 (1%) were called active. This list was built around the results that the source calls inconclusive (neither active nor inactive); the mix of calls is not that of the screen. Calls come from the whole dose curve; as a rule, active = well fitted inhibition curve with a large enough effect; inconclusive = small, poorly fitted or top-dose-only effect, or another doubt; inactive = no such curve, though single readings can be large or run the other way. A potency beside an inconclusive call is a rough fit, not a confirmed value.

Protein sequences, listed by entry. Tags and fused reporters are not part of them. Lines headed by an entry give the natural chain unless they say otherwise; changes in a name come on top.
UniProt Q9UNA4: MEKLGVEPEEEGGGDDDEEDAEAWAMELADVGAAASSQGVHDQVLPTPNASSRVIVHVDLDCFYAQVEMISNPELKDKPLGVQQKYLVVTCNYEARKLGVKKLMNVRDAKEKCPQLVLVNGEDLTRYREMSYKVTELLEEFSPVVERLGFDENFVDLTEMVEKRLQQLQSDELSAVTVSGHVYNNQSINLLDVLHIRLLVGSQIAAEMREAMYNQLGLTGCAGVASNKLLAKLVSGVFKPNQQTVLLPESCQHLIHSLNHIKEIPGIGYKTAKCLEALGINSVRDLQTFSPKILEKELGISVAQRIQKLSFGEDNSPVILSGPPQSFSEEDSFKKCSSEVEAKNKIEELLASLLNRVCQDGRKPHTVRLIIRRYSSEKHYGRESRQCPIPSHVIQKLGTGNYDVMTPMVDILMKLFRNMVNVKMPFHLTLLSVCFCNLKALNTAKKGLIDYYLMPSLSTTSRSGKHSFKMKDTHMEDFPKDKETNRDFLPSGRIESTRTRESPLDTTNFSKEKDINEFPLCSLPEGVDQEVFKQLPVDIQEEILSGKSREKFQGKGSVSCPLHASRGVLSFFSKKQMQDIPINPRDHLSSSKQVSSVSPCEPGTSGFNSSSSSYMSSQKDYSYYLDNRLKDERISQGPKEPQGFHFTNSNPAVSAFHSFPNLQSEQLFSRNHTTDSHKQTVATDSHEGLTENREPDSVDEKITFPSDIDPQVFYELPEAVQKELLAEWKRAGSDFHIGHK

biological target: DNA polymerase iota (Homo sapiens) (UniProt Q9UNA4); assay: qHTS for Inhibitors of Polymerase Iota; conditions: Pol iota fluorescent replication assay, 10 min; series mostly up to 115 µM
Text: DNA polymerases, such as Pol iota, are specifically involved in DNA repair. Pol iota specifically plays an important role in translesion synthesis, where the normal high-fidelity DNA polymerases cannot proceed and DNA synthesis stalls. […] Thus, while pol eta's (and most likely iota's) normal function is to protect humans against the deleterious consequences of DNA damage, under certain conditions they can have deleterious effects on human health. As a consequence, we propose to utilize a high throughput replication assay to identify small molecule inhibitors of pol iota.
In a collaboration between the National Institute of Child Health & Human Development (NICHD) and NIH Chemical Genomics Center, a high-throughput, fluorescent screen was developed to screen the NIH Molecular Libraries Small Molecule Repository (MLSMR). This screen is used to identify inhibitors of pol iota.
NIH Chemical Genomics Center [NCGC]
NIH Molecular Libraries Probe Centers Network [MLPCN]
Assay Submitter (PI): Roger Woodgate, NICHD)
Three microliters of reagents (buffer in column 3 and 4 as negative control and 10 nM Pol iota in columns 1, 2, and 5-48) will be dispensed into 1,536-well black solid-bottomed plate. Compounds (23 nL) will be transferred via Kalypsys pin tool equipped with 1536-pin array. The plates will then be incubated for 15 min at room temperature, and 1 µL substrate (50 nM final concentration) will be added to start the reaction and kinetically read twice at 0 min and 10 min on the Viewlux reader.
Potency is the fitted concentration of half-maximal effect.

SMILES | Potency
CN(C)CCN(Cc1ccco1)C(=O)c1cc2c(s1)-c1ccccc1OC2 | inactive
COc1ccc2sc(SCCCS(=O)(=O)O)[n+](CCCS(=O)(=O)[O-])c2c1 | inconclusive: 22.4 µM [inhibitor, single point]
CC(=O)C1=C(c2ccc(F)cc2)N(C(C)=O)n2c(nnc2C2CCCCC2)S1 | inactive
Cn1c(SCC(=O)c2cc(Cl)c(Cl)s2)nnc1-c1ccco1 | active: 15.8 µM
Cc1ccc2c(c1)N(C)/C(=C/c1cccc[n+]1C)S2 | inconclusive: 28.2 µM [inhibitor, full curve]
COc1ccc(-c2cn3cccnc3n2)cc1NC(=O)Nc1cc(C)ccc1C | inconclusive: 39.8 µM [inhibitor, single point]
O=[N+]([O-])c1ccc(/C=C2\CCC(C3=CCCC3)=C2N2CCOCC2)cc1 | inconclusive: 39.8 µM [inhibitor, partial curve, poor fit]
C#CCOCCOCCOCCNc1nc(N2CCN(C(=O)CCCCCCCCCCNC(=O)Cn3cc(CCCCCN)nn3)CC2)nc(N2CCN(C(=O)CCCCCCCCCCNC(=O)[C@@H](CCC(=O)O)n3cc(CCCCCN)nn3)CC2)n1 | inconclusive: 22.4 µM [inhibitor, single point]
Cc1ccc(NC(=O)CSc2nc(-c3cccs3)nc3cc(=O)[nH]n23)cc1C | active: 89.1 µM
C#CCN1C(=O)S/C(=C/C=C/c2ccc(N(C)C)cc2)C1=O | active: 79.4 µM
Cc1noc(C)c1COC(=O)c1ccc(S(=O)(=O)NCc2ccco2)cc1 | inconclusive: 112 µM [inhibitor, partial curve, poor fit]
CCc1oc(C(=O)O)cc1COC | inconclusive: 28.2 µM [inhibitor, partial curve]
CCc1cccc(CC)c1NC(=O)CSc1nnc(C2CC2)n1C | inconclusive: 100 µM [inhibitor, single point]
O=C(/C=C/Sc1ccccc1)c1ccc(Cl)cc1 | inconclusive: 15.8 µM [inhibitor, full curve, poor fit]
Cc1ccc(-c2nc(C)sc2CC(=O)OCC(=O)Nc2ccc(F)c(Cl)c2)cc1 | inconclusive: 56.2 µM [inhibitor, partial curve, poor fit]
CC(=O)N(/N=C1\Sc2ccccc2C1=O)c1ccc(C)cc1C | inactive
O=C(N/N=C/C(Cl)=C/c1ccccc1)c1ccc2c(c1)OCO2 | inconclusive: 25.1 µM [inhibitor, full curve, poor fit]
COc1cc(/C=N/N=C2/NC(=O)C(CC(=O)O)S2)ccc1OCc1ccc(Cl)cc1 (configuration not stated) | inactive
CC(=O)c1ccc(NC(=O)c2noc3c2CCC3)cc1 | active: 25.1 µM
O=C(NCCc1ccco1)c1cc(COc2cccc(C(F)(F)F)c2)on1 | inactive
CN1C(C(=O)c2ccccc2)=C(NC(=O)c2ccc(F)cc2)c2ccccc2S1(=O)=O | inactive
CCS(=O)(=O)c1ccc2oc(SCC(=O)c3ccco3)nc2c1 | inconclusive: 14.1 µM [inhibitor, partial curve, poor fit]
Cc1ccc(NC2=C(NC(=O)c3ccccc3)C(=O)c3ccccc3C2=O)cc1Cl | inconclusive: 22.4 µM [inhibitor, partial curve, poor fit]

SMILES | Potency
OCCn1nc2c3ccccc3nc-2n(-c2ccccc2)c1=S | inconclusive: 39.8 µM [inhibitor, single point]
COc1ccc(C)cc1NS(=O)(=O)c1c(C)nc2sc(C)cn2c1=O | inactive
Cc1ccc(C(=O)CSc2ccccn2)cc1 | inconclusive: 3.16 µM [inhibitor, full curve, poor fit]
Cc1ccc(Nc2ncnc3c2cnn3-c2ccc(C)cc2)cc1 | inconclusive: 25.1 µM [inhibitor, partial curve, poor fit]
CC(CCc1ccccc1)NC(=O)CSc1cccc[n+]1[O-] (configuration not stated) | inconclusive: 56.2 µM [inhibitor, single point]
CCOc1ccc(NC(=O)CN2C(=O)/C(=C3\SC(=S)N(C4CCS(=O)(=O)C4)C3=O)c3ccccc32)cc1 (configuration not stated) | inactive
O=C(Nc1nccs1)c1cccc(N2C(=O)c3cccc4c([N+](=O)[O-])ccc(c34)C2=O)c1 | inconclusive: 44.7 µM [inhibitor, partial curve, poor fit]
COc1cc(CNCc2ccccc2Cl)ccc1OCC(=O)NC1CCCCC1 | inconclusive: 79.4 µM [inhibitor, single point]
COc1ccc(NC(=O)c2sc3nc(C)c(C(=O)Nc4ccc(C)cc4C)c(-c4ccccc4Cl)c3c2N)cc1 | inconclusive: 39.8 µM [inhibitor, single point]
CN(C)c1ccc(N/C=C/C(=O)c2ccco2)cc1 | inconclusive: 14.1 µM [inhibitor, partial curve, poor fit]
COc1ccc(-n2cc(C(=O)N(C)c3cc(C)ccc3OC)c3ccccc3c2=O)cc1 | inconclusive: 15.8 µM [inhibitor, full curve, poor fit]
CSCCC(NS(=O)(=O)c1ccc2c(c1)oc(=O)n2C)C(=O)NCc1ccc(F)cc1 (configuration not stated) | inconclusive: 89.1 µM [inhibitor, single point]
CCOc1ccccc1NS(=O)(=O)c1ccc2[nH]c(=O)ccc2c1 | inconclusive: 89.1 µM [inhibitor, partial curve, poor fit]
CCn1nc(C)c(CNC(=O)c2ccc(OC3CCN(Cc4ccccn4)CC3)cc2)c1C | inactive
Cc1sc(-c2ccncc2)nc1OC(=O)c1ccc(Cl)cc1 | inconclusive: 14.1 µM [inhibitor, full curve, poor fit]
COc1ccc(Cl)cc1NC(=O)CSc1nc(-c2ccccc2)cc(=O)[nH]1 | inconclusive: 39.8 µM [inhibitor, partial curve, poor fit]
O=C(Nc1cccc(C(=O)O)c1)/C(=C\c1ccco1)NC(=O)c1ccccc1Cl | inconclusive: 5.01 µM [inhibitor, full curve, poor fit]
COCCNC(=O)CCCN1C(=O)CCn2nc(-c3cccn3C)cc21 | inactive
CCOC(=O)C1=C(O)/C(=C/c2ccc(-c3ccccc3C(=O)O)o2)SC1=Nc1ccc(C)cc1 | inconclusive: 15.8 µM [inhibitor, full curve, poor fit]
CCOc1ccc(NC(=O)NNC(=O)c2ccc(CC)s2)cc1 | inconclusive: 22.4 µM [inhibitor, partial curve, poor fit]
Cc1ccc(NC(=O)N/C=C/c2ccco2)cc1C | active: 39.8 µM
C=CCCC1CN(Cc2ccco2)S(=O)(=O)c2c(F)cccc2O1 (configuration not stated) | inconclusive: 22.4 µM [inhibitor, full curve]
Cc1ccc(-c2csc3nc(SCC(=O)Nc4ccc(Cl)c(C(=O)O)c4)[nH]c(=O)c23)cc1 | inconclusive: 20 µM [inhibitor, full curve]

Sorted by number of heavy atoms (low to high): part of the list above
SMILES | Potency
Cc1ccc(C(=O)CSc2ccccn2)cc1 | inconclusive: 3.16 µM [inhibitor, full curve, poor fit]
Cc1sc(-c2ccncc2)nc1OC(=O)c1ccc(Cl)cc1 | inconclusive: 14.1 µM [inhibitor, full curve, poor fit]
CCOc1ccc(NC(=O)NNC(=O)c2ccc(CC)s2)cc1 | inconclusive: 22.4 µM [inhibitor, partial curve, poor fit]
O=C(Nc1cccc(C(=O)O)c1)/C(=C\c1ccco1)NC(=O)c1ccccc1Cl | inconclusive: 5.01 µM [inhibitor, full curve, poor fit]

(list continues)

SMILES | Potency
Cn1ncc2c(N3CCOCC3)ncnc21 | inconclusive: 89.1 µM [inhibitor, single point]
O=C1C(=O)C(c2ccc(O)cc2O)Oc2cc(O)cc(O)c21 (configuration not stated) | active: 10 µM
CCOc1ccc(N2C(=O)C3C4C=CC([C@H]5CC45)[C@@H]3C2=O)cc1 (some centres not stated) | inactive
COc1ccc(CCC(C)NC(=O)Cc2ccc(OC)c(OC)c2)c(OC)c1 (configuration not stated) | inconclusive: 39.8 µM [inhibitor, single point]
CCOC(=O)c1ccc(Cl)c(NC(=O)c2ccc(-c3ccccc3)cc2)c1 | inactive
O=S(=O)(c1ccc(Br)s1)N1CCN(c2ccc(F)cc2)CC1 | inconclusive: 28.2 µM [inhibitor, full curve]
O=C(/C=C/c1ccccc1O)c1ccco1 | inconclusive: 31.6 µM [inhibitor, partial curve, poor fit]
Cc1cc(C)nc(NS(=O)(=O)c2ccc(NC(=O)c3cc4c(=O)n5cccc(C)c5nc4n3C)cc2)n1 | inconclusive: 20 µM [inhibitor, full curve]
CC(C)CN(C(=O)c1cc(Cl)nc2ccccc12)c1c(N)n(Cc2ccccc2)c(=O)[nH]c1=O | inactive
O=C(CN1C(=O)c2cccc3cccc1c23)Nc1ccccc1 | inactive
O=c1c(O)c(-c2ccc(O)c(O)c2)oc2cc(O)ccc12 | active: 2.51 µM
C=CCNc1nc(NC2CCN(C)CC2)c2cc(OC)c(OC)cc2n1 | inactive
CCCCOc1ccc(C2/C(=C(\O)c3ccc4c(c3)OCCO4)C(=O)C(=O)N2CCCN2CCOCC2)cc1 (configuration not stated) | inconclusive: 89.1 µM [inhibitor, single point]
CCCCCCNc1nc2c(c(=O)n(C)c(=O)n2C)n1Cc1cccc(C)c1 | inconclusive: 89.1 µM [inhibitor, single point]
COCCCNC(=O)c1ccc(Cn2c(=O)c3ccccc3n(CC(=O)Nc3c(C)cccc3C)c2=O)cc1 | active: 89.1 µM
C=C1CCN(C(CC(C)C)C(=O)O)S(=O)(=O)c2ccccc21 (configuration not stated) | inactive
O=C1COc2ccc(C(=O)COC(=O)CCSc3ccccc3)cc2N1 | inconclusive: 89.1 µM [inhibitor, single point]
Cc1nc2ccn(Cc3ccco3)c(=O)c2cc1C(=O)NCc1ccccc1F | inactive
COc1cc(NC(=O)c2ccco2)c(OC)cc1NC(=O)CSc1nnc(-c2cccs2)n1C | inconclusive: 25.1 µM [inhibitor, full curve, poor fit]
N#Cc1ccccc1Cn1c(=O)n(CCCC(=O)NCc2ccccc2Cl)c(=O)c2ccccc21 | active: 89.1 µM
CCC(Sc1nc(-c2cccc(OC)c2)c(C#N)c(=O)[nH]1)C(=O)Nc1nnc(C(C)C)s1 (configuration not stated) | inconclusive: 100 µM [inhibitor, partial curve, poor fit]
